Assay results from patent publication US20100021918A1, “METHOD FOR ASSAYING ACTION OF ANTITUMOR AGENT USING SPLICING DEFECTS AS INDEX” (Eisai R&D Management Co., Ltd., priority 2007, published 2010).
The source gives many values for each of these; only a part stands here.

Test system: human colon carcinoma cell strain WiDr
Assay: Microarray analysis (2), reviewed conditions, intron expression, Table 3
Assay type: cell-based
Procedure: WiDr cells were first suspended in RPMI1640 medium (containing 10% FBS, penicillin, and streptomycin) and seeded in a 10 cm dish (2×10^6 cells/dish). After an overnight culture in an incubator with 5% carbon dioxide gas at 37° C., the medium was changed with medium containing 14 nM of (8E,12E,14E)-7-((4-cycloheptylpiperazin-1-yl)carbonyl)oxy-3,6,16,21-tetrahydroxy-6,10,12,16,20-pentamethyl-18,19-epoxytricosa-8,12,14-trien-11-olide or containing vehicle alone. After cultured for additional six hours, TRI reagent (SIGMA) were added to the cells and the cells were harvested. RNA was purified in accordance with the protocol of TRI reagent, followed by further purification with RNeasy (QIAGEN). Absorbance at 260 nm was measured to quantify an amount of RNA. This experiment was repeated three times and RNA samples (n=3) were prepared.
Ribosomal RNA was removed from 1 μg of each total RNA of control cells (n=3) and cells with the treatment (n=3) by using RiboMinus Human/Mouse Transcriptome Isolation Kit (Invitrogen). Single stranded cDNA synthesis, double stranded cDNA synthesis, cRNA synthesis, second single stranded cDNA synthesis, cDNA fragmentation, and cDNA labeling in order were carried out for the total RNA from which ribosomal RNA was removed, by using GeneChip Whole Transcript Sense Target Labeling and Control Reagents (Affymetrix) to make a cDNA probe. The cDNA probe was used for hybridization with Human Exon 1.0 ST Array (Affymetrix). The array was washed and stained, and luminescence intensity was measured by a scanner.
Analysis conditions were reviewed in the data used in Example 3. Genes containing increased introns upon treatment with (8E,12E,14E)-7-((4-cycloheptylpiperazin-1-yl)carbonyl)oxy-3,6,16,21-tetrahydroxy-6,10,12,16,20-pentamethyl-18,19-epoxytricosa-8,12,14-trien-11-olide were identified.
In order to consider the analysis conditions, variations in the data from the samples with identical conditions were studied. […] It turned out that, by analyzing under conditions where the expression level was more than 100 and change in the expression level was more than five times, a probe set with increased expression can be extracted.
Probe sets showing that the normalized change in the level expression of the probe set in the group with the treatment was more than 5 times; the expression level of the probe set and the gene in the group with the treatment were more than 100; and probe set annotation was “extended, full, free”, were picked out. Welch's t-test was conducted with the probe sets extracted for the treated group and the control group to determine a p and q value. A gene containing the probe sets with the q value of less than 5% was determined as a candidate gene with increased expression level of the intron regions (Table 3).
In Table 3, for each gene evaluated, gene name (Gene Name), abbreviated name (Gene Symbol), accession number (Accession), alias name (Synonym), transcription cluster number in Human Exon 1.0 ST Array (Human Exon 1.0 ST Array Transcript Cluster ID), chromosome number (Chromosome), type of strand (Strand), start region (Start), stop region (Stop), and change in expression level (Fold Change) were respectively shown.

CCC(O)C(C)C1OC1CC(C)(O)/C=C/C=C(\C)C1OC(=O)CC(O)CCC(C)(O)C(OC(=O)N2CCN(C3CCCCCC3)CC2)/C=C/C1C (stereo not shown) [E7107, (8E,12E,14E)-7-((4-cycloheptylpiperazin-1-yl)carbonyl)oxy-3,6,16,21-tetrahydroxy-6,10,12,16,20-pentamethyl-18,19-epoxytricosa-8,12,14-trien-11-olide]
Fold Change (Gene Symbol ADAM9, Transcript Cluster ID 3095002): 5.67
Fold Change (Gene Symbol ADPRHL2, Transcript Cluster ID 2330253): 5.73
Fold Change (Gene Symbol AFTPH, Transcript Cluster ID 2485433): 5.82
Fold Change (Gene Symbol AHCTF1, Transcript Cluster ID 2465324): 5.92
Fold Change (Gene Symbol AKAP8L, Transcript Cluster ID 3853345): 5.87
Fold Change (Gene Symbol ANKRD10, Transcript Cluster ID 3525679): 5.83
Fold Change (Gene Symbol ANP32B, Transcript Cluster ID 3181417): 5.66
Fold Change (Gene Symbol ARF1, Transcript Cluster ID 2383726): 5.58
Fold Change (Gene Symbol ARHGEF7, Transcript Cluster ID 3501661): 5.61
Fold Change (Gene Symbol ARIH2, Transcript Cluster ID 2621827): 5.91
Fold Change (Gene Symbol AURKB, Transcript Cluster ID 3744263): 5.92
Fold Change (Gene Symbol BCL2L1, Transcript Cluster ID 3902489): 5.85
Fold Change (Gene Symbol BLCAP, Transcript Cluster ID 3904928): 5.57
Fold Change (Gene Symbol BRAF, Transcript Cluster ID 3076340): 5.68
Fold Change (Gene Symbol C1orf164, Transcript Cluster ID 2333907): 5.72
Fold Change (Gene Symbol C4orf14, Transcript Cluster ID 2770427): 5.72
Fold Change (Gene Symbol C11orf68, Transcript Cluster ID 3378007): 5.91
Fold Change (Gene Symbol C14orf151, Transcript Cluster ID 3554282): 5.67
Fold Change (Gene Symbol C17orf70, Transcript Cluster ID 3773980): 5.87
Fold Change (Gene Symbol CACYBP, Transcript Cluster ID 2368198): 5.90
Fold Change (Gene Symbol CCNH, Transcript Cluster ID 2865860): 5.74
Fold Change (Gene Symbol CDCA3, Transcript Cluster ID 3442322): 5.93
Fold Change (Gene Symbol CLK1, Transcript Cluster ID 2594497): 5.88
Fold Change (Gene Symbol CLTC, Transcript Cluster ID 3729172): 5.76
Fold Change (Gene Symbol CPSF4, Transcript Cluster ID 3014764): 5.66
Fold Change (Gene Symbol CSNK1E // KIAA1660, Transcript Cluster ID 3960478): 5.51
Fold Change (Gene Symbol CSTF1, Transcript Cluster ID 3890154): 5.77
Fold Change (Gene Symbol CTNNAL1, Transcript Cluster ID 3219621): 5.76
Fold Change (Gene Symbol CUL4A, Transcript Cluster ID 3502497): 5.85
Fold Change (Gene Symbol CYR61, Transcript Cluster ID 2344888): 5.52
Fold Change (Gene Symbol DCTN4, Transcript Cluster ID 2881554): 5.54
Fold Change (Gene Symbol DDX39, Transcript Cluster ID 3852691): 5.84
Fold Change (Gene Symbol DPH2 // B4GALT2 // ATP6V0B, Transcript Cluster ID 2333635): 5.72
Fold Change (Gene Symbol ELP4, Transcript Cluster ID 3325307): 5.48
Fold Change (Gene Symbol EMG1, Transcript Cluster ID 3403140): 5.65
Fold Change (Gene Symbol FLJ20366, Transcript Cluster ID 3148871): 5.48
Fold Change (Gene Symbol G3BP2 // NARG2 // RORA, Transcript Cluster ID 2773756): 5.54
Fold Change (Gene Symbol GATA6, Transcript Cluster ID 3781245): 5.67
Fold Change (Gene Symbol GLS, Transcript Cluster ID 2520291): 5.65
Fold Change (Gene Symbol GPIAP1, Transcript Cluster ID 3326183): 5.92
Fold Change (Gene Symbol GRLF1, Transcript Cluster ID 3837001): 5.92
Fold Change (Gene Symbol GSR, Transcript Cluster ID 3130161): 5.49
Fold Change (Gene Symbol GTF3C5, Transcript Cluster ID 3192653): 5.81
Fold Change (Gene Symbol HIPK1, Transcript Cluster ID 2352758): 5.77
Fold Change (Gene Symbol HNRPH1, Transcript Cluster ID 2890148): 5.57
Fold Change (Gene Symbol HNRPH3, Transcript Cluster ID 3249738): 5.68
Fold Change (Gene Symbol HNRPU, Transcript Cluster ID 2464499): 5.85
Fold Change (Gene Symbol IFRD2, Transcript Cluster ID 2675088): 5.71
Fold Change (Gene Symbol IK, Transcript Cluster ID 2831932): 5.66
Fold Change (Gene Symbol KCTD5, Transcript Cluster ID 3645204): 5.50
Fold Change (Gene Symbol KLF5, Transcript Cluster ID 3493543): 5.70
Fold Change (Gene Symbol LGALS8, Transcript Cluster ID 2386867): 5.84
Fold Change (Gene Symbol LRRC1 // C20orf44, Transcript Cluster ID 2910680): 5.54
Fold Change (Gene Symbol LSG1, Transcript Cluster ID 2711818): 5.69
Fold Change (Gene Symbol MCM3, Transcript Cluster ID 2957126): 5.50
Fold Change (Gene Symbol MLPH, Transcript Cluster ID 2534252): 5.70
Fold Change (Gene Symbol MRPS11, Transcript Cluster ID 3607183): 5.80
Fold Change (Gene Symbol MYD88, Transcript Cluster ID 2617563): 5.71
Fold Change (Gene Symbol NAT5, Transcript Cluster ID 3878934): 5.65
Fold Change (Gene Symbol NDUFB11, Transcript Cluster ID 4007009): 5.86
Fold Change (Gene Symbol NFAT5, Transcript Cluster ID 3666779): 5.80
Fold Change (Gene Symbol NFKBIA, Transcript Cluster ID 3561039): 5.90
Fold Change (Gene Symbol NHN1, Transcript Cluster ID 3673515): 5.49
Fold Change (Gene Symbol NME1-NME2 // NME1, Transcript Cluster ID 3726934): 5.52
Fold Change (Gene Symbol NOLC1, Transcript Cluster ID 3261492): 5.73
Fold Change (Gene Symbol NR2F2, Transcript Cluster ID 3610110): 5.79
Fold Change (Gene Symbol NRBP1, Transcript Cluster ID 2474527): 5.77
Fold Change (Gene Symbol NUDCD1, Transcript Cluster ID 3148796): 5.68
Fold Change (Gene Symbol PAFAH1B2, Transcript Cluster ID 3350749): 5.72
Fold Change (Gene Symbol PARD3, Transcript Cluster ID 3284596): 5.49
Fold Change (Gene Symbol PBEF1 // RP11-92J19.4, Transcript Cluster ID 3066818): 5.77
Fold Change (Gene Symbol PDCD2L, Transcript Cluster ID 3829751): 5.57
Fold Change (Gene Symbol PITPNB, Transcript Cluster ID 3956290): 5.87
Fold Change (Gene Symbol PLAGL2, Transcript Cluster ID 3902682): 5.63
Fold Change (Gene Symbol POLR1A, Transcript Cluster ID 2562605): 5.81
Fold Change (Gene Symbol PPAT, Transcript Cluster ID 2770242): 5.65
Fold Change (Gene Symbol PPIL4 // SLC25A24, Transcript Cluster ID 2978876): 5.54
Fold Change (Gene Symbol PPTC7, Transcript Cluster ID 3471300): 5.77
Fold Change (Gene Symbol PREI3 // HSPE1, Transcript Cluster ID 2521500): 5.67
Fold Change (Gene Symbol PSCD2, Transcript Cluster ID 3837836): 5.69
Fold Change (Gene Symbol PSMC2, Transcript Cluster ID 3017206): 5.65
Fold Change (Gene Symbol PSMD2, Transcript Cluster ID 2655650): 5.89
Fold Change (Gene Symbol PTMA // FAM22G, Transcript Cluster ID 2532021): 5.52
Fold Change (Gene Symbol RICS, Transcript Cluster ID 3397877): 5.68
Fold Change (Gene Symbol RNF34, Transcript Cluster ID 3434823): 5.87
Fold Change (Gene Symbol RNF43, Transcript Cluster ID 3764399): 5.56
Fold Change (Gene Symbol RNF139, Transcript Cluster ID 3114618): 5.59
Fold Change (Gene Symbol RP2, Transcript Cluster ID 3975869): 5.85
Fold Change (Gene Symbol SEC24C, Transcript Cluster ID 3251848): 5.62
Fold Change (Gene Symbol SECISBP2, Transcript Cluster ID 3178611): 5.74
Fold Change (Gene Symbol SEMA4B, Transcript Cluster ID 3607927): 5.80
Fold Change (Gene Symbol SF3B3, Transcript Cluster ID 3667281): 5.78
Fold Change (Gene Symbol SH3RF1, Transcript Cluster ID 2793137): 5.78
Fold Change (Gene Symbol SLBP, Transcript Cluster ID 2757319): 5.85
Fold Change (Gene Symbol SLC7A6, Transcript Cluster ID 3666146): 5.86
Fold Change (Gene Symbol SLC25A3, Transcript Cluster ID 3427820): 5.50
Fold Change (Gene Symbol SLC39A14, Transcript Cluster ID 3089360): 5.86
Fold Change (Gene Symbol SLK, Transcript Cluster ID 3262433): 5.49
Fold Change (Gene Symbol SMC1A, Transcript Cluster ID 4009238): 5.53
Fold Change (Gene Symbol SMCR7L, Transcript Cluster ID 3945877): 5.88
Fold Change (Gene Symbol SMG1, Transcript Cluster ID 3683050): 5.86
Fold Change (Gene Symbol SRRM1 // C1orf130, Transcript Cluster ID 2325526): 5.49
Fold Change (Gene Symbol ST3GAL4, Transcript Cluster ID 3355145): 5.71
